Data published in PubChem BioAssay AID200 (DTP/NCI, 2004).
The list is a part of this screen's results and no random one: it is rich in T/C values a quarter to a half above the control, in often repeated tests (any T/C) and in doses without a T/C. Further doses and runs are listed elsewhere. T/C is the treated group as % of the vehicle group. Some doses have a count of surviving animals in place of a T/C: the source files T/C as zero there, which appears to mark a toxic dose or a test without result, not a measured value. Some survivor counts are full or nearly so, which does not show that the dose was tolerated: survival well below the control is almost never listed, so the zero probably covers shortened survival too. Survivors were counted at the toxicity check, usually on the fifth day, unless a day is given; later deaths do not show. Schedules are NCI's codes, read here as Q, the interval in days (D) or hours (H), X, the number of doses. For survival time, the PubChem record calls one and a half times the control and up active, and a quarter to a half above the control has no call in these data; cut-offs in other NCI protocols can differ.

Test system: B6C3F1 mice, B16 melanoma ip, median survival T/C
Experiment: NCI In Vivo Anticancer Drug Screen. Data for tumor model B16 Melanoma (intraperitoneal) in B6C3F1 mice
Conditions: T/C endpoint: median survival time, higher T/C = longer survival
Outline: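 Tumor-bearing mice received test compound; a separate group got vehicle only. Survival was then compared, with results reported as treated over control.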

[1] = dose: 200.0 mg/kg/injection, schedule: Q01DX009 (ip), vehicle: saline with Tween-80
[2] = dose: 400.0 mg/kg/injection, schedule: Q01DX009 (ip), vehicle: saline with Tween-80
[3] = dose: 100.0 mg/kg/injection, schedule: Q01DX009 (ip), vehicle: Klucel (hydroxypropylcellulose) (HPC)
[4] = dose: 200.0 mg/kg/injection, schedule: Q01DX009 (ip), vehicle: Klucel (hydroxypropylcellulose) (HPC)

With `O=C(C/C(=N\C(=S)Nc1cc(C(F)(F)F)ccc1Cl)NO)N1CCCC1` the survivor count [1] was 5 of 10 and the survivor count [2] was 2 of 10.
For `Cc1ccc(NCCN(C)C)c2c(=O)c3cc(O)ccc3sc12`, the survivor count [3] was 0 of 10 and the survivor count [4] was 0 of 10.
`O=C1C=C(Nc2ccc(O)cc2)c2ccccc2C1=O` was tested, and the survivor count (dose: 40.0 mg/kg/injection, schedule: Q01DX009 (ip), vehicle: saline) was 2 of 10.
In the case of `Cc1cc(Nc2ccc3c(c2)OCO3)c2cc3c(cc2n1)OCO3`, the survivor count [3] is reported as 10 of 10, the survivor count [4] is reported as 2 of 10 and the survivor count (dose: 400.0 mg/kg/injection, schedule: Q01DX009 (ip), vehicle: Klucel (hydroxypropylcellulose) (HPC)) is reported as 0 of 10.
For `Cn1cnc([N+](=O)[O-])c1Sc1nc(N)nc2c1ncn2C1OC(CO)C(O)C1O` (configuration not stated), the survivor count (dose: 25.0 mg/kg/injection, schedule: Q01DX009 (ip), vehicle: suspension in saline) was 10 of 10 and the survivor count (dose: 50.0 mg/kg/injection, schedule: Q01DX009 (ip), vehicle: suspension in saline) was 10 of 10.
With `COC1/C=C/C=C(/C)Cc2cc(O)c(Cl)c(c2)N(C)C(=O)CC(OC(=O)C(C)C)C2(C)OC2C(C)C2CC1(O)NC(=O)O2` (configuration not stated) the T/C (dose: 0.12 mg/kg/injection, schedule: Q01DX009 (ip), vehicle: saline + alcohol) was 142 % of control, the T/C (dose: 1.0 mg/kg/injection, schedule: Q01DX009 (ip), vehicle: saline + alcohol) was 147 % of control and the survivor count (dose: 2.0 mg/kg/injection, schedule: Q01DX009 (ip), vehicle: saline + alcohol) was 8 of 10. The survivor count (dose: 4.0 mg/kg/injection, schedule: Q01DX009 (ip), vehicle: saline + alcohol) was 1 of 10, the T/C (dose: 50.0 micrograms/kg/injection, schedule: Q01DX009 (ip), vehicle: saline + alcohol) was 138 % of control and the T/C (dose: 100.0 micrograms/kg/injection, schedule: Q01DX009 (ip), vehicle: saline + alcohol) was 141 % of control. The T/C (dose: 200.0 micrograms/kg/injection, schedule: Q01DX009 (ip), vehicle: saline + alcohol) was 144 % of control and the T/C (dose: 800.0 micrograms/kg/injection, schedule: Q01DX009 (ip), vehicle: saline + alcohol) was 145 % of control.
In the case of `CC(O)C1(O)C(O)CC(OC2c3cc4c(c(O)c3[C@@H]3C[C@@]2(C)OC32C=c3cc[nH]c3=N2)C(=O)c2cccc(O)c2C4=O)OC1C` (some centres not stated), the T/C (dose: 6.25 mg/kg/injection, schedule: Q01DX009 (ip), vehicle: saline with Tween-80) is reported as 137 % of control, the T/C (dose: 12.5 mg/kg/injection, schedule: Q01DX009 (ip), vehicle: saline with Tween-80) is reported as 132 % of control and the T/C (dose: 25.0 mg/kg/injection, schedule: Q01DX009 (ip), vehicle: saline with Tween-80) is reported as 146 % of control. The survivor count (dose: 50.0 mg/kg/injection, schedule: Q01DX009 (ip), vehicle: saline with Tween-80) was 10 of 10 and the survivor count (dose: 100.0 mg/kg/injection, schedule: Q01DX009 (ip), vehicle: saline with Tween-80) was 1 of 10.
With `O=C1N[C@@H]([C@H]2CC[C@H](Cl)CN2)C(=O)N[C@H]1[C@H]1CC[C@H](Cl)CN1` the T/C (dose: 0.5 mg/kg/injection, schedule: Q01DX009 (ip), vehicle: saline) was 129 % of control, the T/C (dose: 1.0 mg/kg/injection, schedule: Q01DX009 (ip), vehicle: saline) was 128 % of control and the T/C (dose: 2.0 mg/kg/injection, schedule: Q01DX005 (ip), vehicle: saline) was 146 % of control. For the same compound, the T/C (dose: 2.0 mg/kg/injection, schedule: Q01DX009 (ip), vehicle: saline) was 141 % of control, the survivor count (dose: 4.0 mg/kg/injection, schedule: Q01DX009 (ip), vehicle: saline) was 10 of 10 and the survivor count (dose: 8.0 mg/kg/injection, schedule: Q01DX005 (oral), vehicle: saline) was 10 of 10. The survivor count (dose: 8.0 mg/kg/injection, schedule: Q04DX003 (ip), vehicle: saline) was 10 of 10.
`COc1ccc(C(=O)CC2CCCC(CC(=O)c3ccc(OC)cc3)N2C)cc1` (configuration not stated) was tested, and the survivor count [1] was 5 of 10 and the survivor count [2] was 0 of 10.
